Assay results reported in the supplement of paper PMC11150407.
About 45 (2%) of roughly 3,000 compounds showed an effect of 50% or more. This is one part of the list.

These molecules were tested on MOLM1 and UCSD/AML1 (averaged) (assay: cell viability relative to DMSO control (POC); higher = less growth inhibition). Conditions: 1 µM; 72 h.
Protocol: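 Primary viability screen in the 3q26 EVI1-high AML cell lines MOLM1 and UCSD/AML1, compounds at 1 uM for 72 h. ATP CellTiter-Glo read-out given as percent viable over DMSO control (POC), averaged over duplicates. This mapping covers the TimTec NDL-3000 natural derivative library, whose compounds are identified by TimTec catalogue codes (ST...).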
NC(C(=O)O)C(O)c1ccc(OCc2ccccc2)c(OCc2ccccc2)c1 (stereo not given) gave a cell viability of 102%. With CCOc1ccc(/C=C2/Oc3ccc(C(=O)OC)cc3C2=O)cc1OCC the cell viability was 96.6%. COCC(=O)c1c(O)cc(O)cc1O gave a cell viability of 112%. In the case of Cc1cc2c(C(C)C)c(O)c(O)c(C=NCCC3=CCCCC3)c2c(O)c1-c1c(C)cc2c(C(C)C)c(O)c(O)c(C=NCCC3=CCCCC3)c2c1O, the cell viability is reported as 114%. Molecule CCc1ccc(OCCn2c(C)c(C(=O)OCCOC)c3cc(O)c4ccccc4c32)cc1 has a cell viability of 85.8%. Molecule CCOC(=O)c1cc(CSc2nc3c(=O)[nH]cnc3n2-c2ccc(C)cc2)on1 has a cell viability of 101%. COc1cc(OC)cc(C(=O)Nc2cc(OC)cc(S(=O)(=O)c3ccc(Cl)cc3)c2)c1 was tested, and the cell viability was 92.8%. Molecule COc1cc(-c2nnc(SCC(=O)N/N=C/c3cccnc3)n2-c2ccccc2)cc(OC)c1OC has a cell viability of 97.2%. CCOc1ccccc1C1C2CCCCC2(O)CCN1C/C=C/c1ccccc1 (stereo not given) showed a cell viability of 72.6%. Molecule O=C(Nc1ccccc1)C1=Cc2ccccc2OC1 has a cell viability of 101%. Molecule NC(CCCC(N)C(=O)O)C(=O)O (stereo not given) has a cell viability of 104%. Cc1cc(=O)oc2cc(NC(=O)c3cc4ncc(Br)cn4n3)ccc12 showed a cell viability of 109%. Cc1ccc2[nH]c(C)c(CCNC(=O)c3cc4ccccc4oc3=O)c2c1 gave a cell viability of 100%. CC1(C(=O)O)CCC2(C)CCC3(C)C(=CC(=O)C4C5(C)CCC(OC6OC(C(=O)O)C(O)C(O)C6OC6OC(C(=O)O)C(O)C(O)C6O)CC5CCC43C)C2C1.CC1(C(=O)O)CCC2(C)CCC3(C)C(=CC(=O)C4C5(C)CCC(OC6OC(C(=O)O)C(O)C(O)C6OC6OC(C(=O)O)C(O)C(O)C6O)CC5CCC43C)C2C1.[Zn] (stereo not given) gave a cell viability of 102%. CCC(C)C(NC(C)=O)C(=O)O (stereo not given) was tested, and the cell viability was 95.6%. Cn1cnc2c(N)ncnc21 gave a cell viability of 107%. COC1OC2COC(c3ccccc3)OC2C(O)C1OS(=O)(=O)c1ccc(C)cc1 (stereo not given) was tested, and the cell viability was 80.9%. In the case of COc1cc(C2C(C#N)=C(N)Oc3n[nH]c(-c4ccccc4)c32)cc(OC)c1OC (stereo not given), the cell viability is reported as 100%. CCc1nnc(NC(=O)CN2CCc3ccccc3C2)s1 showed a cell viability of 109%. Cn1c(=O)[nH]c(=O)c2c1nc(N1CCN(C(=O)CCC(=O)O)CC1)n2Cc1ccc([N+](=O)[O-])cc1 showed a cell viability of 96.4%. Molecule Cc1[nH]c2ccccc2c1CCNC(=O)c1ccc(Cl)c([N+](=O)[O-])c1 has a cell viability of 98.3%. Molecule CC(C)COc1ccc(C(=O)N/C(=C\c2ccccc2)C(=O)NCCNC(=O)/C(=C\c2ccccc2)NC(=O)c2ccc(OCC(C)C)cc2)cc1 has a cell viability of 103%. O=C(O)C1C2C=CC(C2)C1C(=O)N1CCc2ccccc2C1 (stereo not given) was tested, and the cell viability was 98.6%. Molecule CC(=O)OCC1OC(NC(=O)OC2CCCCC2)C(OC(C)=O)C(OC(C)=O)C1OC(C)=O (stereo not given) has a cell viability of 103%. With CC(=O)OC1CC(n2cc(C)c(=O)[nH]c2=O)OC1CO (stereo not given) the cell viability was 98.2%. For Cc1ccc(-n2c(SCC(=O)Nc3cccc(F)c3)nc3c(=O)[nH]cnc32)cc1, the cell viability was 100%. c1ccc(Cn2nnnc2SCc2nc3ccccc3[nH]2)cc1 showed a cell viability of 98.4%. Work on O=C(Cn1c(=O)cc(C(=O)N2CCc3ccccc3C2)c2ccccc21)Nc1ccc2c(c1)OCCO2 yielded a cell viability of 103%. N#Cc1c(-c2ccc(Cl)cc2)cc(-c2ccc3c(c2)OCO3)[nH]c1=O gave a cell viability of 91.5%. Molecule COc1cc(C(=O)Nc2nccs2)cc(OC)c1OC has a cell viability of 98.2%. COc1ccc(-c2nnc(SCc3nc4ccccc4[nH]3)o2)cc1OC was tested, and the cell viability was 95.3%. Work on CCOC(=O)c1ccc(NC(=O)CSc2nc3ccccc3c(=O)[nH]2)cc1 yielded a cell viability of 85.1%. Molecule CC/C(O)=C1\C(=O)CCCC1=NCCc1c(C)[nH]c2ccc(OC(F)(F)F)cc12 has a cell viability of 102%. Cn1c(=O)c2c(nc(Sc3nc4ccccc4[nH]3)n2Cc2ccc(Cl)cc2Cl)n(C)c1=O was tested, and the cell viability was 94.8%. CC(C)C(=O)Oc1ccc2c(=O)c(Oc3ccc4ccccc4c3)coc2c1 gave a cell viability of 92.6%. For COc1ccc(-c2cc(-c3ccccc3)nc3sc(C(=O)N4CCC[C@H]4C(=O)O)c(N)c23)cc1, the cell viability was 94.3%. Work on CCOc1ccc(NC(=O)CSc2nc3c(=O)[nH]cnc3n2C)cc1 yielded a cell viability of 103%. Molecule O=c1oc2c(Br)cc(Cl)cc2c(-c2ccccc2)c1-c1ccc(Br)cc1 has a cell viability of 76.8%. In the case of C=CCOC1OC(COC(C)=O)C(OC(C)=O)C(OC(C)=O)C1OC(C)=O (stereo not given), the cell viability is reported as 91.1%. With COc1cc(-c2oc3c(OC)c(OC4OC(COC(C)=O)C(O)C(O)C4OC4OC(C)C(O)C(O)C4O)cc(O)c3c(=O)c2O)ccc1O (stereo not given) the cell viability was 106%. Work on COC(=O)/C=C/c1cc(OC)c(OC)c(OC)c1 yielded a cell viability of 101%. Molecule CCN(CC)c1ccc(C2C3CCCCC3(O)CCN2C(=O)/C=C/c2ccc(C(C)C)cc2)cc1 (stereo not given) has a cell viability of 88%. COC(=O)c1c(C)nc(C)c2c(=O)[nH]c3cc(OC)c(OC)cc3c12 gave a cell viability of 86.5%. For Cc1ccc(-n2c(SCc3nc(-c4cccc(C)c4)oc3C)nc3c(=O)[nH]cnc32)cc1, the cell viability was 107%. O=C(Cn1c(=O)cc(C(=O)N2CCCCC2)c2ccccc21)Nc1ccc(Br)cc1 showed a cell viability of 98%. For CC(C)CC(NC(=O)C(NC(=O)C1OC2OC(C)(C)OC2C2OC(C)(C)OC12)C(C)C)C(=O)O (stereo not given), the cell viability was 96.4%. In the case of Cc1cc2c(C(C)C)c(O)c(O)c(C=Nc3ccc4c(c3)CCN4S(C)(=O)=O)c2c(O)c1-c1c(C)cc2c(C(C)C)c(O)c(O)c(C=Nc3ccc4c(c3)CCN4S(C)(=O)=O)c2c1O, the cell viability is reported as 111%. Molecule O=C(CN(c1cccc([N+](=O)[O-])c1)S(=O)(=O)c1ccccc1)N1CCc2ccccc2C1 has a cell viability of 103%. COc1ccc(Nc2nc(N3CCN(c4nc(-c5ccccc5)cs4)CC3)nc3ccccc23)c(OC)c1 was tested, and the cell viability was 86%. COc1ccc(-c2coc3cc(OC)c(OC)cc3c2=O)cc1OC gave a cell viability of 99.8%. O=C(O)c1cc(O)c2ccccc2c1O gave a cell viability of 87.5%. COc1ccc(C(=O)NC(=S)Nc2cc(C(F)(F)F)ccc2Cl)cc1OC showed a cell viability of 99.4%. In the case of COc1ccc(C(=O)Nc2ccccc2C(=O)N2CCCCC2C)c(OC)c1OC (stereo not given), the cell viability is reported as 106%. Molecule O=C(/C=C/c1ccccc1Cl)Oc1ccc(C=Nc2cccc(C(F)(F)F)c2)cc1 has a cell viability of 106%. Molecule Cc1ccc2c(c1)c1c(n2C)CC[N+](C)(C)C1 has a cell viability of 99.1%. COc1ccc(C(=O)Nc2cccc(C3OCCCO3)c2)cc1OC gave a cell viability of 96.9%. For COc1cccc(C=Nc2ccc3cc4ccc(N=Cc5cccc(OC)c5O)cc4nc3c2)c1O, the cell viability was 2.39%. Cc1[nH]c2c(C)cccc2c(=O)c1CN1CCCC1 was tested, and the cell viability was 101%. Molecule CC(C)C(=O)Nc1nc2c(ncn2C2CC(OC(=O)C(C)C)C(CO)O2)c(=O)[nH]1 (stereo not given) has a cell viability of 103%. O=C(/C=C/c1ccc(O)cc1)c1ccc(O)cc1O showed a cell viability of 102%. COCCCN1C(=O)/C(=C/c2ccc3c(c2)OCO3)SC1=S showed a cell viability of 95.6%. Molecule O=C(/C=C/c1ccccc1O)c1ccccc1O has a cell viability of 77.6%. C=C(CBr)C1Cc2c(ccc3c2OC2COc4cc(OC)c(OC)cc4C2C3=O)O1 (stereo not given) was tested, and the cell viability was 60.9%. CCCNC(=O)c1cc(=O)n(CC(=O)Nc2cc(F)ccc2F)c2ccccc12 gave a cell viability of 100%. In the case of CCn1c2ccccc2c2cc(/C=N/NC(=O)c3cc(OC)c(OC)c(OC)c3)ccc21, the cell viability is reported as 10.7%. For CCOC(=O)c1ccc(OC)c(OC)c1, the cell viability was 104%. O=C(/C=C/c1c(Cl)cccc1Cl)c1ccc2ccccc2c1O gave a cell viability of 117%. Cn1c(=O)c2c(nc(Br)n2Cc2ccccc2Cl)n(C)c1=O gave a cell viability of 102%. Molecule COc1cccc(C(=O)CC2OC(=O)c3c2ccc(OC)c3OC)c1 (stereo not given) has a cell viability of 96.1%. For O=C(Nc1ccc2nn(-c3ccc(Cl)cc3)nc2c1)c1ccc2c(c1)OCCO2, the cell viability was 94.4%. Cc1cc(C)c2c(c1)OC(N)(C(Cl)(Cl)Cl)CC2=O (stereo not given) was tested, and the cell viability was 79.3%. Molecule CC(=O)O[C@@H]1CC[C@@]2(C)[C@H](CC[C@@H]3[C@@H]2C[C@H](OC(C)=O)[C@]2(C)[C@@H](C(C)=O)CC[C@@H]32)C1 has a cell viability of 77.3%. O=C(Cn1c(=O)cc(C(=O)N2CCc3ccccc3C2)c2ccccc21)NCc1ccc2c(c1)OCO2 gave a cell viability of 99.8%. With COc1ccc(C=O)cc1OC(=O)N1CCOCC1 the cell viability was 104%. Work on COc1cc(C(=O)CCNc2ccc(Oc3ccc(Cl)cc3)cc2)cc(OC)c1OC yielded a cell viability of 98.1%. Molecule COc1ccc2c(=O)c(O)c(-c3ccccc3)oc2c1 has a cell viability of 62.7%. In the case of COc1ccc(Cl)cc1NC(=O)CSc1nc2c(=O)[nH]cnc2n1-c1ccc(C)cc1, the cell viability is reported as 99.3%. In the case of CC(=O)NC(Cc1c[nH]c2ccccc12)C(=O)O (stereo not given), the cell viability is reported as 90.8%. Molecule COc1cc(OC)c(C(=O)/C=C/c2ccc(O)cc2)c(OC)c1 has a cell viability of 100%. COc1ccc(C(=O)Cn2c(=O)c3ccccc3n(C)c2=O)cc1OC gave a cell viability of 107%. CSc1cccc(NC(=O)CSc2nc3c(=O)[nH]cnc3n2-c2ccccc2)c1 gave a cell viability of 94.5%. CCN(CC)C(=O)c1cccc(NCCC(=O)c2ccc3c(c2)OCO3)c1 was tested, and the cell viability was 91.6%. For COc1ccc(C2c3[nH]c4ccccc4c3CCN2C(=O)c2ccccc2Br)cc1 (stereo not given), the cell viability was 98.6%. With Cc1c(-c2cccc(Cl)c2)c(=O)oc2ccc(O)cc12 the cell viability was 108%. With COc1ccc2c(c1)c(CC(=O)OCC(N)=O)c(C)n2C(=O)c1ccc(Cl)cc1 the cell viability was 73.1%. In the case of O=C1N=c2ccc(Br)cc2=C1c1sc(=S)n(C(Cc2ccccc2)C(=O)O)c1O (stereo not given), the cell viability is reported as 84.7%. CCCNC(=O)c1cc2ccc(OC(=O)c3ccccc3I)cc2oc1=O was tested, and the cell viability was 83.3%. O=C(O)c1cc(=O)[nH]c2ccccc12 showed a cell viability of 91.2%. Work on O=C(Cn1c(=O)cc(C(=O)N2CCCCC2)c2ccccc21)Nc1ccc(F)cc1 yielded a cell viability of 89.9%. CCOc1cc(C2C3CCCCC3(O)CCN2CC(=O)Nc2ccc(Cl)cc2Cl)ccc1O (stereo not given) gave a cell viability of 94.2%. Molecule CCOC(=O)CCC(=O)Nc1ccccc1C(=O)Nc1ccccc1 has a cell viability of 114%. Cc1cc(C)c2c(CN3CCN(C4CCCCC4)CC3)cc(=O)oc2c1 gave a cell viability of 102%. Work on CC1(C)CC(=O)C2=C(C1)Nc1ccccc1N(C(=S)Nc1ccccc1)C2c1ccc(Cl)cc1 (stereo not given) yielded a cell viability of 89.9%. COc1cc(OC)cc(C(=O)c2ccc(C(=O)Nc3cc(Oc4ccc(F)cc4)cc([N+](=O)[O-])c3)cc2)c1 showed a cell viability of 109%. In the case of Cc1ccc2c(CN3CCN(CC(=O)Nc4cc(C(F)(F)F)ccc4Cl)CC3)cc(=O)oc2c1, the cell viability is reported as 121%.
